Measurements taken from the supplement of paper PMC12873370.
Several values for one entry are separate records, joined by “and”; a condition that tells them apart may be missing. Identical values can stand only once. The list shows a part of the results. Repeats are few or missing, and single values can be far off.

How the values were obtained:
[1] = test system: MEPP (mouse ovarian epithelium Trp53/Pten KO); experiment: cell viability relative to untreated (fraction); higher = less growth inhibition; conditions: 5 µM; 3 days
[2] = test system: PREPP (mouse prostate epithelium Trp53/Pten KO); experiment: as above; conditions: 5 µM; 3 days

Compound	cell viability [1]	cell viability [2]
CC(=O)[C@H]1CC[C@H]2[C@@H]3CC[C@H]4C[C@H](O)CC[C@]4(C)[C@H]3CC[C@]12C	0.81	0.83
COC[C@@]12CC[C@H](OC)[C@]34C([C@H]([C@H](OC)[C@H]13)[C@]1(O)[C@H]3[C@@H](OC(=O)c5ccccc5)[C@](O)(C[C@H]34)[C@@H](OC)[C@@H]1O)N(C)C2	0.992	0.736
COc1ccc(C(=O)O)cc1OC	0.844	1.01
Oc1ccccc1-c1ccccc1	0.93	0.971
COc1cc([C@@H]2c3cc4c(cc3[C@@H](O)[C@H]3COC(=O)[C@H]23)OCO4)cc(OC)c1O	0.674	0.713
COc1cc2c3c(c1OC)-c1ccccc1C[C@H]3N(C)CC2	1.04	1.01
C=C(C)[C@H]1Cc2c(ccc3c2O[C@@H]2COc4cc(OC)c(OC)cc4[C@@H]2C3=O)O1	0.669	0.833
O=C1C=CC(=O)C=C1	1.04	0.89
COc1ccc(C=O)cc1	1.17	1.01
CC[C@H]1CN2CC[C@H]1C[C@H]2[C@H](O)c1ccnc2ccc(OC)cc12	1.13	1.09
COc1ccc2c(c1)[nH]c1c(C)nccc12	1.09 and 1.03	0.855 and 0.918
O=C1CCC[C@@H]2[C@H]3CCCN4CCC[C@@H](CN12)[C@@H]34	1.15	0.876
Nc1nc(N)nc(N)n1	0.99	0.951
CC(=O)O[C@@]12CO[C@@H]1C[C@@H](O)[C@@]1(C)C(=O)[C@H](O)C3=C(C)[C@@H](O)C[C@@](O)([C@@H](OC(=O)c4ccccc4)[C@H]21)C3(C)C	0.92	0.93
CN1[C@@H]2CC(O)C[C@H]1[C@@H]1O[C@@H]12 (some centres not stated)	1.02	1.01
Oc1ccc(Cl)cc1Cl	0.911	0.94
CN(CC(=O)O)C(=N)NP(=O)(O)O	0.811	0.845
N#CCc1c[nH]c2ccccc12	1.02	0.949

Compound	cell viability [1]	cell viability [2]
CO[C@]12C[C@@H](COC(=O)c3cncc(Br)c3)CN(C)[C@@H]1Cc1cn(C)c3cccc2c13	0.775	0.963
CC(=O)O[C@H]1[C@H]2O[C@]23[C@@H]2CC[C@@H]4C[C@@H](O)CC[C@]4(C)[C@H]2CC[C@]3(C)[C@H]1c1ccc(=O)oc1	1.37	0.837
CC(C)C[C@H]1C(=O)N2CCC[C@H]2[C@]2(O)O[C@](NC(=O)[C@@H]3C=C4c5cccc6[nH]c(Br)c(c56)C[C@H]4N(C)C3)(C(C)C)C(=O)N12	0.783	0.694
CC(C)(C)[C@]1(O)CC2OC(=O)CC23C(=O)OC2OC(=O)[C@H](O)C231 (some centres not stated)	1.14	0.889
COc1cc([C@@H]2c3cc4c(cc3[C@H](O)[C@H]3COC(=O)[C@H]23)OCO4)cc(OC)c1OC	0.51	0.779
CN1C2CC(OC(=O)C(CO)c3ccccc3)CC1C(O)C2 (configuration not stated)	0.783	0.944
COc1cccc(C=O)c1OC	0.826	1.06
CNCC(O)c1ccc(O)cc1 (configuration not stated)	0.965	1.26
C=C[C@H]1CN2CC[C@H]1C[C@H]2[C@H](O)c1ccnc2ccccc12	0.781	0.885
C[C@H]1CCC/C=C/[C@@H]2C[C@H](O)C[C@H]2[C@H](O)/C=C/C(=O)O1	0.472	0.477
CN1[C@@H]2CC[C@H]1C[C@@H](OC(=O)C(CO)c1ccccc1)C2 (some centres not stated)	1.06 and 0.903 and 1.11	0.879 and 0.911 and 0.984
CNC1CC(N)C(O)C(OC2OC(CO)C(O)C3OC4(OC(C(N)CO)C(O)C(O)C4O)OC23)C1O (configuration not stated)	1.15	0.888
CO[C@H]1C[C@H](O[C@H]2CC[C@@]3(C)[C@H](CC[C@@H]4[C@@H]3CC[C@]3(C)[C@@H](C5=CC(=O)OC5)[C@@H](OC(C)=O)C[C@]43O)C2)O[C@@H](C)[C@@H]1O	1.03	0.936
C[C@H]1CC[C@@H]2N(C1)C[C@H]1[C@@H]3C[C@H]4[C@@H](CC(=O)[C@H]5C[C@@H](O)CC[C@@]54C)[C@@H]3CC[C@H]1[C@]2(C)O	1.04	1.05
NCC(O)c1ccccc1 (configuration not stated)	0.787	1.08
C=C1CC[C@H]2[C@@H](/C=C(\C)C(=O)[C@@]3(O)C[C@H](C)[C@H](O)[C@@H]3[C@@H]1O)C2(C)C	1.2	1.03
CC(C)=CCC[C@]1(C)C=Cc2c(O)c3c(c(CC=C(C)C)c2O1)O[C@]12C(=C[C@@H]4C[C@H]1C(C)(C)O[C@@]2(C/C=C(/C)C(=O)O)C4=O)C3=O	0.37	0.178
C[C@H]1O[C@H](O[C@H]2[C@H](O)[C@@H](O)[C@@H](O)[C@H](O)[C@@H]2O)[C@@H](N)C[C@@H]1NC(=N)C(=O)O	1.17	1.17
